# Source: PubChem BioAssay AID2685 (National Center for Advancing Translational Sciences (NCATS), 2010)
# This is one part of the list. These are further read-outs of the screen, such as a control signal, another cell line or another target. No call is given for them. Most of these compounds were active or inconclusive in the main read-out, so they are no random draw. Potencies come from curve fits of mixed quality, noted in brackets.
# Test: qHTS Assay for Lipid Storage Modulators in Drosophila S3 Cells;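 as to cell number change: cells counted by Cell Tracker Red CMTPX staining in the red channel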
# Settings: BODIPY lipid droplet fluorescence, 18-24 h
# Summary of the method: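 Drosophila S3 cells got compounds at several concentrations plus oleic acid (400 uM solution). Laser-scanning cytometry with 488 nm excitation read lipid droplets at 500-530 nm and cells at 575-640 nm. Percent activity was relative to 20 uM Triacsin C.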
# [1] = measured here: cell number channel AC50, cells fed with added oleic acid
structure (smiles),measurement,setting,value
COc1cc(/C=C2\C(=N)N3N=C(S(C)(=O)=O)SC3=NC2=O)ccc1OC(=O)c1cccs1,AC50,[1],"0.326 µM [falling, full curve, poor fit]"
Cc1cc(N2C(=O)C(O)=C(C(=O)c3cc4ccccc4o3)C2c2ccc(Cl)cc2)no1 (centres undefined),cell number change,"measured here: cell count max response, cells fed with added oleic acid",70.3%
same,AC50,[1],"29.1 µM [rising, single point]"
same,AC50,"measured here: lipid fluorescence (Fed channel) AC50, cells fed with added oleic acid","29.1 µM [rising, single point]"
